No constants are given. Whether binding was seen depends on the method and setting. Some binding calls cover weakened binding; strength is not graded here. For part of these data: Sequences can lack the tags named with a protein.
Legend:
[1] = biological target: T1, myocilin (OLF) from spent human TM cell culture medium (human) (UniProt Q99972); experiment: immunoprecipitation from spent human TM medium, IgG, Western blot read-out
T1 sequence: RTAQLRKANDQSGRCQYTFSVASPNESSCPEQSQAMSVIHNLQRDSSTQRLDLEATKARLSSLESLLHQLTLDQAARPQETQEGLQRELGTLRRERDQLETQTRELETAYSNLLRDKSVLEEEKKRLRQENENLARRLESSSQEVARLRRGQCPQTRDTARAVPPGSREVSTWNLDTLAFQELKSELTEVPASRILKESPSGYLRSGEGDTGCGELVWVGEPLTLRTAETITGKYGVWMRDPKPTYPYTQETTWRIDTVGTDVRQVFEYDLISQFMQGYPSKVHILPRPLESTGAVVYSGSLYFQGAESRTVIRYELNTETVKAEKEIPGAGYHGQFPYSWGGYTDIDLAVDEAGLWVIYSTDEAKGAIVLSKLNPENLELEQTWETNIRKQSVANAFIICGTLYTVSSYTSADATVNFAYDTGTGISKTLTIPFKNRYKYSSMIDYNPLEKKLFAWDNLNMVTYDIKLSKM

[2] = biological target: T1, myocilin (OLF) from spent human TM cell culture medium (human); experiment: immunoprecipitation from TM cell culture, Western blot read-out
[3] = biological target: T2, in vitro-prepared aggregate of human myocilin OLF (human) (UniProt Q99972); experiment: ELISA, aggregate vs fusion-construct monomer
T2 sequence: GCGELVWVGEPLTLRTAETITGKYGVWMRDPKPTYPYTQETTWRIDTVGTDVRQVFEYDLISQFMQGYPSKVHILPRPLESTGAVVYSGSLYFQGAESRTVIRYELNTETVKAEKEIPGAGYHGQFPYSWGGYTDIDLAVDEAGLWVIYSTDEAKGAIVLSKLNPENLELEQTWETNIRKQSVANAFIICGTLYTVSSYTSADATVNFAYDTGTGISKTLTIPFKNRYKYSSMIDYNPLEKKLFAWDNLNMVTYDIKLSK

[4] = biological target: T3, human myocilin OLF (hMyoc-OLF), cleaved from its fusion tag (human) (UniProt Q99972); experiment: Western blot, denatured hMyoc-OLF
T3 sequence: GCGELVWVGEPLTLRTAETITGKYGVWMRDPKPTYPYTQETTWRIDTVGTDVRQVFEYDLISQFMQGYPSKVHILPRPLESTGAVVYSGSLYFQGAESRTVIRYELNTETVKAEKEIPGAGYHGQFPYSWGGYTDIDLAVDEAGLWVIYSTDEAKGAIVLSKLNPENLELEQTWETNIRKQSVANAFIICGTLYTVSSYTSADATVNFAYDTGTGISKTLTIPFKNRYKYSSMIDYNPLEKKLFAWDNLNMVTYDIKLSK

[5] = biological target: T2, in vitro-prepared aggregate of human myocilin OLF (human); experiment: told in the amyloid aggregation example; the assay behind it is not named there

Measured: binding

B1: Monoclonal Antibody OLF2 (antibody, V domains shown)
VH: DVKLVESGGGLVKPGGSLKLSCAASGFTFSSYAMSWVRQTPDKRLEWVATISSGGSYTYYPDSVKGRFTISRDNAKNTLYLQMSSLKSEDTAMYYCARLGGGIFAYWGQGTLVTVSA
VL: DVLMTQTPLSLPVSLGDQASISCRSSQSIVHSNGNTYLEWYLQKPGQSPKLLIYKVSNRFSGVPDRFSGSGSGTDFTLKISRVEAEDLGVYYCFQGSHVPLTFGAGTKLEIKR
notes: also called anti-OLF2
binds: [1] | [2] | [3]

B2: Monoclonal Antibody OLF4 (antibody, V domains shown)
VH: EVMLVESGGGLVKPGGSLKLSCAASGFTFRSYAMSWVRQTPEKRLEWVASISGRGNILYPDSVEGRFTISRDNARNILYLQMSSLRSEDTAMYYCVIYDSGAMDYWGQGTSVTVSS
VL: DIVMTQTPLSLPVSLGDQASISCRSSQSLVHSNGNTYLHWYLQKPGQSPKLLIYKVSNRFSGVPDRFSGSGSGTDFLKISRVEAEDLGLYFCSQTTHVPLTFGAGTKLELKR
binds: [4] | [5] | [3]
